Measured values as given in US20040096878.
The exact form of at least one protein or probe is not confirmed. At least one result comes from cells or an extract, where the contact may be indirect.

System: HuB (Hel-N2)
Test: pull-down
Conditions: mRNA enriched in RA-treated HuB mRNPs; SEQ 19 identical; protein in cells

UUUUUUAUUUUCUGUAUUUUUU [Neuronal-cadherin 3'-UTR segment 1]
binding result: binds
